The values that follow come from paper PMC10333294.

By UniProt entry, the sequences of proteins in these tests, tags left out.
UniProt P78527: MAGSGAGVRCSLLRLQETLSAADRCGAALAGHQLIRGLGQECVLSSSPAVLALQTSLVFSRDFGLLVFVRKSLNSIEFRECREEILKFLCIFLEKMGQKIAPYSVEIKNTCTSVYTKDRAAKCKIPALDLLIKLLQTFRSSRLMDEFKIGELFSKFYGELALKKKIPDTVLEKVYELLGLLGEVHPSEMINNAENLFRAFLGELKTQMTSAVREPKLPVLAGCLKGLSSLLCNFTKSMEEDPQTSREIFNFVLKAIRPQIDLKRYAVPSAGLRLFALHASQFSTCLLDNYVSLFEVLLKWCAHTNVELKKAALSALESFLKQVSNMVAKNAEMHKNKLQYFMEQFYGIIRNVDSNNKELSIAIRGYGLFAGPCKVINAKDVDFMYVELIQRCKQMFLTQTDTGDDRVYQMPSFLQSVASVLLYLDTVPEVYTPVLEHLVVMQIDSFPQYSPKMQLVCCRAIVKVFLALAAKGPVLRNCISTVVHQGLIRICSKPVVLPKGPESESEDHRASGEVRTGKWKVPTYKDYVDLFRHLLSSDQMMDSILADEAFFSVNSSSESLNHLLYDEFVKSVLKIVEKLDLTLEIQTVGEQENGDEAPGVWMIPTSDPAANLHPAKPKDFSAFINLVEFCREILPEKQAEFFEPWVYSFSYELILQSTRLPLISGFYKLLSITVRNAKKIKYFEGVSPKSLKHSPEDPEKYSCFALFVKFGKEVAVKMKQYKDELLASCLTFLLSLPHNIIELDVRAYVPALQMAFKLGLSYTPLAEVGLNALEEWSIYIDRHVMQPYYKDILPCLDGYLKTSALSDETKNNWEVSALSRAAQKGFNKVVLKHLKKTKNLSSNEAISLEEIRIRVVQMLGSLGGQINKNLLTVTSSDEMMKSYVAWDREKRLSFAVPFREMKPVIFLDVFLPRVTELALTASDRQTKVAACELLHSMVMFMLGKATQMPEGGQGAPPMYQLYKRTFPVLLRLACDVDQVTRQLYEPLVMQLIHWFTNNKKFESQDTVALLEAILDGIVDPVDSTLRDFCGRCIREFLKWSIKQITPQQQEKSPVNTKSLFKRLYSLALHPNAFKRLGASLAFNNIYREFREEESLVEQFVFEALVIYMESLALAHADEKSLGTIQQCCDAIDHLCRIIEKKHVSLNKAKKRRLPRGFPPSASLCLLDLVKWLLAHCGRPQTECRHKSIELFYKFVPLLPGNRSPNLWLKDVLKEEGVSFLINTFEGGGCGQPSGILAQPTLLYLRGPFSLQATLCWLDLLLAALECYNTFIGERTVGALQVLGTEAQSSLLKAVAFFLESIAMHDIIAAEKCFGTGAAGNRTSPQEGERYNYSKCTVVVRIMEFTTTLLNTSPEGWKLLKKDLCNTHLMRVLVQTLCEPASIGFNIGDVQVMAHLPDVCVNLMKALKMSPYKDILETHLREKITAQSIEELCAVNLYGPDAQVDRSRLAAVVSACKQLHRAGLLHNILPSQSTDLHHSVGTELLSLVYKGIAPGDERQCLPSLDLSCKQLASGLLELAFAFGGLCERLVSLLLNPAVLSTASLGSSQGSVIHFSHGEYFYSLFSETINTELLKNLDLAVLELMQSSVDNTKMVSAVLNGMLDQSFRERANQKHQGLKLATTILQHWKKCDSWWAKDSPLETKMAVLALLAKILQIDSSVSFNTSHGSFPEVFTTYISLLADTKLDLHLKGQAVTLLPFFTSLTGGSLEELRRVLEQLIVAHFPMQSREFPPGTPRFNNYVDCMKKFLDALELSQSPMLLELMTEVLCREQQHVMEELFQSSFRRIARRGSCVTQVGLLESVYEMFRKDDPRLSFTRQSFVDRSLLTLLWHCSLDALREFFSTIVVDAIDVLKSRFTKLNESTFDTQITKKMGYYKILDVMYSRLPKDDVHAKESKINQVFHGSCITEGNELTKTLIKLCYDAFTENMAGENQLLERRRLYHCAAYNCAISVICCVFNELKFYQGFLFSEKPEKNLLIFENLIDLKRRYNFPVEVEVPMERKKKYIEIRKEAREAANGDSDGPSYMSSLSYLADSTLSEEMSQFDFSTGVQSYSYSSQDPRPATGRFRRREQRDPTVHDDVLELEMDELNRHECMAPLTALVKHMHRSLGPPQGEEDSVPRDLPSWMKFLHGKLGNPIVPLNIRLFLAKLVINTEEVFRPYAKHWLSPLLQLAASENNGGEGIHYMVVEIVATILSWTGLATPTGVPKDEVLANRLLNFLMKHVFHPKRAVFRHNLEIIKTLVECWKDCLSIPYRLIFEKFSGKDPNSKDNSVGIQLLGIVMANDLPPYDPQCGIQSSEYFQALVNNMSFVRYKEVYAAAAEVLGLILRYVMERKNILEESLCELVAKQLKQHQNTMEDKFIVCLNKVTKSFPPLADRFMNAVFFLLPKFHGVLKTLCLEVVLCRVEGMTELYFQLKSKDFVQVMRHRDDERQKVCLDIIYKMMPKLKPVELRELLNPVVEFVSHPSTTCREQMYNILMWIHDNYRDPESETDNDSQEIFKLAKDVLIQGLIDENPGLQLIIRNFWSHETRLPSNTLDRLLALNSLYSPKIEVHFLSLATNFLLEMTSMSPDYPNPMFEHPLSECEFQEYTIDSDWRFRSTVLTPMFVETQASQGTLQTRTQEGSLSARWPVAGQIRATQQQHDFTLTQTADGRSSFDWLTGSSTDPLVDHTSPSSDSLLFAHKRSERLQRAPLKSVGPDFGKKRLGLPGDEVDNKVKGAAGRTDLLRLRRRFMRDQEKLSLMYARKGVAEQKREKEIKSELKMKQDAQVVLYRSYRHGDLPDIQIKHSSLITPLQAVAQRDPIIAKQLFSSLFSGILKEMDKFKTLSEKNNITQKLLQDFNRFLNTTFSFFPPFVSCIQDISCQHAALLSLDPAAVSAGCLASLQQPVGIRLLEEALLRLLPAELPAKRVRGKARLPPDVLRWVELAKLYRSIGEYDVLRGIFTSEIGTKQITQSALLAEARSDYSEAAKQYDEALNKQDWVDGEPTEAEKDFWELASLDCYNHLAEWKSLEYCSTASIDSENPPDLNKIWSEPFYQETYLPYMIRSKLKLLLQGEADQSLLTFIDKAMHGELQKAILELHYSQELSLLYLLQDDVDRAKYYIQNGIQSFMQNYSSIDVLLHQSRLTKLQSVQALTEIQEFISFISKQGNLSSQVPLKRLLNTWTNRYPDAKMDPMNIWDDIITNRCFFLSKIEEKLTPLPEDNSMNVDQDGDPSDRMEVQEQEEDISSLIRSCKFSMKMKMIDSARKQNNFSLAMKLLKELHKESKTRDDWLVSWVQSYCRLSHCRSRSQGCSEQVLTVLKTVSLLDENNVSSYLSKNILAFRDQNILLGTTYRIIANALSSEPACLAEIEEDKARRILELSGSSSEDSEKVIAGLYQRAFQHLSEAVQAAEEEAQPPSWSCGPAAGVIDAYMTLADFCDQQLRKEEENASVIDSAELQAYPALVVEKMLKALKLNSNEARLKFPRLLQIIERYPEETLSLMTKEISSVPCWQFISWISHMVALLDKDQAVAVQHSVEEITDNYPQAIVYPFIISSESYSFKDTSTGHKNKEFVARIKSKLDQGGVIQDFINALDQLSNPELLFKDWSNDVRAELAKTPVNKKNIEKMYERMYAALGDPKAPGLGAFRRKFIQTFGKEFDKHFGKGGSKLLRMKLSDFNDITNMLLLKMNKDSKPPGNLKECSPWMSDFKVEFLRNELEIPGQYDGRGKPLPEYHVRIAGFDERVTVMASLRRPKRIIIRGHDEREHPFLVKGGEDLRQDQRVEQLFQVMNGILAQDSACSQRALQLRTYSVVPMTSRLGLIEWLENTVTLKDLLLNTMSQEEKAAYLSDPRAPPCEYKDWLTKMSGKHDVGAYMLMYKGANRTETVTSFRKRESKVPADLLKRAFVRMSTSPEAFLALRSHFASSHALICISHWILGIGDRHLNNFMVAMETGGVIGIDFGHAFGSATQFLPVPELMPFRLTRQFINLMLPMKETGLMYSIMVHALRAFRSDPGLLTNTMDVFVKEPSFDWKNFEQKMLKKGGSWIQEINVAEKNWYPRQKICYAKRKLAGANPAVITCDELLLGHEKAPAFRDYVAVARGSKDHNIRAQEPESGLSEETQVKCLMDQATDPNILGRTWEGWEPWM
UniProt Q9Y4X5: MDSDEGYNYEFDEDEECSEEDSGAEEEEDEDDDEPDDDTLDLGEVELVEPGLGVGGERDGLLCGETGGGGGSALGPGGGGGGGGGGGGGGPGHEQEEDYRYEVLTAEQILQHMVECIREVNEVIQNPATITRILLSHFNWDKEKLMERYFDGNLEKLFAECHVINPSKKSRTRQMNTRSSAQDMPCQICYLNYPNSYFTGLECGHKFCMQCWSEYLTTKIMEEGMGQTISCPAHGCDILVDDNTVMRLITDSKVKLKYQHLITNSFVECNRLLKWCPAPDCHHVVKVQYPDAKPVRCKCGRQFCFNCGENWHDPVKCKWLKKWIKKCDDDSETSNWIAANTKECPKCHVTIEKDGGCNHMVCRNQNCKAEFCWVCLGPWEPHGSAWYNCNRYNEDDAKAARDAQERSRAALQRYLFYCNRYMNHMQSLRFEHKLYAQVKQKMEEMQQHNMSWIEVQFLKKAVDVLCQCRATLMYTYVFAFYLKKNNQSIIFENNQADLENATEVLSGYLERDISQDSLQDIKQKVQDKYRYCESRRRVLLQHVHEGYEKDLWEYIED

Assay [1] deals with DNA-PKcs (DNA-dependent protein kinase catalytic subunit), endogenous (human (endogenous in HEK293T)) (UniProt P78527). In words: co-IP; endogenous DNA-PKcs immunoprecipitated with anti-DNA-PKcs from HEK293T cells, immunoprecipitates analysed with anti-ARIH1; IgG control.
Assay [2] concerns the target ARIH1^-WT-HA (Ariadne RBR E3 ubiquitin-protein ligase 1, HA-tagged) (human) (UniProt Q9Y4X5). In words: co-IP; interaction of ARIH1 with DNA-PKcs with overexpressed G-Flag (Fig. 5i, Supplementary Fig. 11i); bait not stated.
Assay [3] deals with ARIH1 of the GST pull-down assay (human) (UniProt Q9Y4X5). In words: pull-down; GST pull-down; set-up not described in the text (Supplementary Fig. 11b, c).

These are yes or no findings as the source states them, for the method shown. In cells and extracts the contact can be indirect. Some results given as binding are weak or reduced against the parent protein; the word gives no strength.

Regarding “ARIH1 in HEK293T cells (detected with anti-ARIH1) (from UniProt Q9Y4X5 1-557) (enzyme)”, in assay [1], the binding result is listed as “binds”.

Consider “DNA-PKcs (DNA-dependent protein kinase catalytic subunit), endogenous (from UniProt P78527 1-4128)”, for which the binding entry in assay [2] is “binds”.

As to “DNA-PKcs of the GST pull-down assay (from UniProt P78527 1-4128)”, the binding entry in assay [3] is on record as “binds”.
